Experimental data as given in publication PMC13128453, “Complexoform-restricted covalent TRMT112 ligands that allosterically agonize METTL5” (Nature Chemical Biology, 2025).
Residue numbers refer to the chain shown, from its start. Names may count otherwise. Results are given in words; binding and its absence hold for the method and conditions named. Some entries that bind do so weakly or less than the wild type. Where a sequence is shown, tags or fusion partners need not be part of it. One block for each binder: values may come before it.

Amino acid sequences for entries named in this document (tags omitted).
UniProt Q9NRN9: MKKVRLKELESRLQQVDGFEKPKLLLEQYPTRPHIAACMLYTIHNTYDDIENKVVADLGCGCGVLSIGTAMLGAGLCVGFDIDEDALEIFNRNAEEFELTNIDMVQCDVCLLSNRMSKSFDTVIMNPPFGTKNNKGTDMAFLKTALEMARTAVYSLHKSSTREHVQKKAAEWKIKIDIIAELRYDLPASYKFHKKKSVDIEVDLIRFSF

Target: His–METTL5 (human) (UniProt Q9NRN9)
Assay: co-purification (metal affinity, anion exchange, SEC); untagged TRMT112 coexpressed with His–METTL5 in E. coli BL21 (DE3); Ni-NTA (washes up to 1 M NaCl), HiTrap Q FF, Superdex 200 in 50 mM Tris-HCl pH 7.5, 200 mM NaCl, 1 mM TCEP

binding: binds
B1: TRMT112-C100A (of the purified TRMT112-C100A:His–METTL5 complex) (protein, UniProt Q9UI30 1-125)
chain: MKLLTHNLLSSHVRGVGSRGFPLRLQATEVRICPVEFNPNFVARMIPKVEWSAFLEAADNLRLIQVPKGPVEGYEENEEFLRTMHHLLLEVEVIEGTLQAPESGRMFPISRGIPNMLLSEEETES

binding: binds
B2: WT-TRMT112 (of the purified WT-TRMT112:His–METTL5 complex) (protein, UniProt Q9UI30 1-125)
chain: B1 chain with A100C
